This note sets out measurements from patent publication US11985994B2, “Sweetener and flavor compositions, methods of making and methods of use thereof” (EPC Natural Products Co., Ltd., priority 2018, dated 2024).

The series in a line: HPLC/DAD/MS analysis of reaction partners and MRI (Amadori) products. The format is physicochemical. Conditions: Phe + Reb-A, Reb-B from degraded Reb-A, MRIs from degraded Phe. How it is done:
Quantitative evaluation was performed using external standardization.

Consider `C=C1CC23CCC4C(C)(C(=O)O)CCCC4(C)C2CCC1(OC1OC(CO)C(O)C(OC2OC(CO)C(O)C(O)C2O)C1OC1OC(CO)C(O)C(O)C1O)C3` (stereo not drawn) [Reb-B, Rebaudioside B], for which the “% formation” value came out at 23.1% (pH = 5.5), 22.7% (pH = 7.0) and 19.1% (pH = 8.5).
